Reference: patent publication EP0478101B1 (W.R. Grace & Co.-Conn., priority 1990, dated 1992)

Assay: general procedure: Boc solid-phase peptide synthesis; phenylacetamidomethyl (PAM) polystyrene resin, or p-methylbenzhydrylamine (mBHA) resin
Conditions: oxidative folding step, analytical reverse phase HPLC

PEPTIDE1{C.S.V.T.C.G}$PEPTIDE1,PEPTIDE1,1:R3-5:R3$$$V2.0
final HPLC purity: 95%

Some peptides are written in HELM: one residue between dots, names in brackets for other building blocks, links after the first $.
